Publication doi:10.1101/2020.09.28.317172

The chains behind the UniProt entries cited, without tags or fusion partners. Where a name states a change or a piece, a line headed by the entry shows the natural chain unless it says otherwise.
UniProt Q8TEW0: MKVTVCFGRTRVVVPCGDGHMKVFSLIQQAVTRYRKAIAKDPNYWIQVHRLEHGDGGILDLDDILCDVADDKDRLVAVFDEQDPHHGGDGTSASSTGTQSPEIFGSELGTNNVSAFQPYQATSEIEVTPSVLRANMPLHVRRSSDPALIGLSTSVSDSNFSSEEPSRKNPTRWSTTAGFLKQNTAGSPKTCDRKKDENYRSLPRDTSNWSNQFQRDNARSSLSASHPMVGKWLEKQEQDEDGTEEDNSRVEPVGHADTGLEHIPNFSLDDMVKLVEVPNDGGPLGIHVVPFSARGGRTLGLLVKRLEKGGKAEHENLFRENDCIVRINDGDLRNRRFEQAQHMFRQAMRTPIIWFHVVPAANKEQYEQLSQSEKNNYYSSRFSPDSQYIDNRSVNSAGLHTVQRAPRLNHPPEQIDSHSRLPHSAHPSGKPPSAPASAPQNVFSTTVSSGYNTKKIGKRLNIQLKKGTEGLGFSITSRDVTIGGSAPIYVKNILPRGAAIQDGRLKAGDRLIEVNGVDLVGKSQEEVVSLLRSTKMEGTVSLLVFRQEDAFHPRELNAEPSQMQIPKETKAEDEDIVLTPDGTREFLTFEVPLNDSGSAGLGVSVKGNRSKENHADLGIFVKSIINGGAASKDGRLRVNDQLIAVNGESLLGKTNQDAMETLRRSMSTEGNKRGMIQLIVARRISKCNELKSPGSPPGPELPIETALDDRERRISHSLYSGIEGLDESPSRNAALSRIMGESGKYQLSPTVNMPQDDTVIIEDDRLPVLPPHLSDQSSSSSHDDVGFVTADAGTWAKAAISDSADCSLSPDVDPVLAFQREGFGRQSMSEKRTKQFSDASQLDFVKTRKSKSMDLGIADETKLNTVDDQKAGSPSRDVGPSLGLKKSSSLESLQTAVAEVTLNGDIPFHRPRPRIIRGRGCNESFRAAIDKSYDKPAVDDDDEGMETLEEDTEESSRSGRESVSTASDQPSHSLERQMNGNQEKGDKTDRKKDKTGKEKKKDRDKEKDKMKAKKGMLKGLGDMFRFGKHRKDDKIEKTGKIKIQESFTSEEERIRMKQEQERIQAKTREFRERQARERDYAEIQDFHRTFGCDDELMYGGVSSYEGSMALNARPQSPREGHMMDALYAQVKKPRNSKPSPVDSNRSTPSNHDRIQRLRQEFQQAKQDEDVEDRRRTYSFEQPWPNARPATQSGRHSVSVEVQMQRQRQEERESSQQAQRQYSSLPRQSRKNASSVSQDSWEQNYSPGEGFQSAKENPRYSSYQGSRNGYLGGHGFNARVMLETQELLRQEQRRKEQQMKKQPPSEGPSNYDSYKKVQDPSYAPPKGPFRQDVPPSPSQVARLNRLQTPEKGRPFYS
UniProt A0A2R8QCI3: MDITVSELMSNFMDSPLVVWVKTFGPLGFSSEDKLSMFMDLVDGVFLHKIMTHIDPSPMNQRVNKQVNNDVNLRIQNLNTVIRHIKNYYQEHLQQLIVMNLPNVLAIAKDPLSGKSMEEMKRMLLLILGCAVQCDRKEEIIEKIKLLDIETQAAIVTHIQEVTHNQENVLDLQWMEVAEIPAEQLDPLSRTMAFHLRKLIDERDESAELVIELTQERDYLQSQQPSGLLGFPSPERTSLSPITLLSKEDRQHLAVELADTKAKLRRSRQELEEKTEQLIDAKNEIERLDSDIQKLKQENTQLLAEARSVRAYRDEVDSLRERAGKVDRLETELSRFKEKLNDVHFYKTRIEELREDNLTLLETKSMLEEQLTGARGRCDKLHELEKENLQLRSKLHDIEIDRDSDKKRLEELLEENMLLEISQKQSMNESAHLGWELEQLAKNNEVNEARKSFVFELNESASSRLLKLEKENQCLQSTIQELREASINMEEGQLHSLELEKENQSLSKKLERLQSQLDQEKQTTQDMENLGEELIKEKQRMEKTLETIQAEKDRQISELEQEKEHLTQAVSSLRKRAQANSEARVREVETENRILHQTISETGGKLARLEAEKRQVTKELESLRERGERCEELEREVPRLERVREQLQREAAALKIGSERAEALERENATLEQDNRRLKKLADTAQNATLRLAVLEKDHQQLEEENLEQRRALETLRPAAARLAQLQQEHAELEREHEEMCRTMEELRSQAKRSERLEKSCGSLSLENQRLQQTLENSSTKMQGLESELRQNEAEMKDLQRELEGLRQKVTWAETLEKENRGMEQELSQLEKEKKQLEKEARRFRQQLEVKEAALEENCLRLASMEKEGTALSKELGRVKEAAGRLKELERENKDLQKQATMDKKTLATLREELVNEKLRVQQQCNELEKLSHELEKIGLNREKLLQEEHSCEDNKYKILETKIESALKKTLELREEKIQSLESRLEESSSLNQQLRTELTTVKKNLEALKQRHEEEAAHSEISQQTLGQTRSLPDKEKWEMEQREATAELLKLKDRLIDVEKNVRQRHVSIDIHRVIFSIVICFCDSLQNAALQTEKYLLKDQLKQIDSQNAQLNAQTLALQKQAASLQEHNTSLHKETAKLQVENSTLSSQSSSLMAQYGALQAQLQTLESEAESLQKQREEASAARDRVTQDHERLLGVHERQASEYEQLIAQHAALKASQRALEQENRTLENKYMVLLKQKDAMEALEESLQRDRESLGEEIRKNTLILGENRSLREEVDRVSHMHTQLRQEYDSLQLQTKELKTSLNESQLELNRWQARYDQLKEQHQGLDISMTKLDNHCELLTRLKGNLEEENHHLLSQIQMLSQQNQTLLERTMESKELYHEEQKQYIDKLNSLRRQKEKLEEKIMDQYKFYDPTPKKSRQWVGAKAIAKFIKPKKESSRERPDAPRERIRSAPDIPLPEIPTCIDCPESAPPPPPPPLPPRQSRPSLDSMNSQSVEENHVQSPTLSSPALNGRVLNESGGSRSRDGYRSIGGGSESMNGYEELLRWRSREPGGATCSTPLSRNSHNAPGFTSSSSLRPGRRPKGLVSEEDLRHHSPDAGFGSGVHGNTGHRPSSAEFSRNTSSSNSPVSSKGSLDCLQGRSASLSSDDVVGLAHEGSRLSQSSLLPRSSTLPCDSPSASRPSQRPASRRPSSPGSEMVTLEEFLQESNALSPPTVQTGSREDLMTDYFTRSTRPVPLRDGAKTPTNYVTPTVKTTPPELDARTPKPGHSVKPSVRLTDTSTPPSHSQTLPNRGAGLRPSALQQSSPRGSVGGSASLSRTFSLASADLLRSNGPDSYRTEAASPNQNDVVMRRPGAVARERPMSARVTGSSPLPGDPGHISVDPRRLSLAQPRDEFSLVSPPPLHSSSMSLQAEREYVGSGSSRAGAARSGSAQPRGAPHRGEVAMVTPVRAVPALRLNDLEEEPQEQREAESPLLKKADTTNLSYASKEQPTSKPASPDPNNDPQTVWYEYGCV

Target: GST-tagged PDZ domains of ParD3 (UniProt Q8TEW0)
Assay: pull-down

binding: binds
Substance: C-terminus of zebrafish Daple (from UniProt A0A2R8QCI3) (domain or fragment)

No constants are given. Whether binding was seen depends on the method and setting. Binding seen in cells or lysates may run through a third protein. Binding calls can cover weak binding; strength is not graded here.
